Laboratory results: PubChem BioAssay AID652259 (Drosophila RNAi Screening Center, 2013)
The screen tested about 22,000 reagents; below is a random part of those that have a named target and a result. Of all reagents, 233 (1.1%) were called active. 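Light values are raw, unnormalised plate reads; the ratio scores behind the reporter calls were not deposited.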 A plus sign joins genes that one reagent is predicted to hit. Not stated in the record: the amount of reagent, the time to read-out, the dose of the treatment.

Screen: 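Knock-downs that push a Wingless-driven reporter up or down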 (primary screen)
System: Drosophila clone 8 imaginal disc epithelial cells
Reagents: long dsRNA against Drosophila genes
Treatment: pathway stimulated by co-transfected Wingless expression plasmid
Measured: 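Firefly luciferase from a tcf-site Wingless reporter, measured alongside co-transfected Renilla luciferase that tracks transfection; pathway stimulated by a Wingless plasmid; the firefly-to-Renilla ratio is not deposited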
Direction: firefly reporter light: higher = more Wg reporter light, before normalisation; Renilla control light: higher = more transfected or surviving cells
Call rule: 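a knock-down is a candidate when at least two out of four statistical tests show it departing from its plate mean; one test alone signals a weak candidate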
Calls: active = candidate regulator (raises or lowers reporter); inactive = not a candidate

The first 2 entries, to show the layout:
gene,amplicon,"firefly reporter light, replicate 1","firefly reporter light, replicate 2","Renilla control light, replicate 1","Renilla control light, replicate 2",Outcome
tst + CG10375,DRSC14237,2099,6573,950,1305,inactive
CG2812,DRSC04319,2918,7677,640,1880,inactive

The listing, from the first entry:
gene,amplicon,"firefly reporter light, replicate 1","firefly reporter light, replicate 2","Renilla control light, replicate 1","Renilla control light, replicate 2",Outcome
tst + CG10375,DRSC14237,2099,6573,950,1305,inactive
CG2812,DRSC04319,2918,7677,640,1880,inactive
CG43293,DRSC08797,4215,,1709,,inactive
cN-IIIB (cytosolic 5'-nucleotidase IIIB),DRSC04359,9188,,3405,,inactive
CG7369,DRSC11822,4947,,2357,,inactive
Mst87F (Male-specific RNA 87F),DRSC16747,19512,,4385,,inactive
mon2 (monensin sensitivity 2),DRSC03112,2741,6627,1085,3195,inactive
dbf (doublefault),DRSC02570,2730,6662,1156,2681,inactive
ems (empty spiracles),DRSC16941,20576,,4712,,inactive
CG5565,DRSC00690,3568,6083,1132,2570,inactive
l(3)04053 (lethal (3) 04053),DRSC11640,8179,,3064,,inactive
CG34235 + CG30058 + CG34312,DRSC22142,4.31e5,4.81e5,1.82e5,1.96e5,inactive
E(var)3-9 (Enhancer of variegation 3-9),DRSC14451,15354,,4360,,inactive
Rap1 (Rap1 GTPase),DRSC08686,11611,,3780,,inactive
ocm (over compensating males),DRSC04360,5304,,1632,,inactive
CG5810,DRSC15880,28768,,7267,,inactive
CG5810,DRSC21921,5.44e5,5.42e5,2.03e5,2.30e5,inactive
CanA-14F (Calcineurin A at 14F),DRSC20211,17824,,3221,,inactive
l(1)10Bb (lethal (1) 10Bb),DRSC20346,19092,,6906,,inactive
CG30289,DRSC03870,16258,,8443,,inactive
NUCB1 (Nucleobindin 1),DRSC22137,5.08e5,5.34e5,2.09e5,1.93e5,inactive
CG34007,DRSC01790,21917,,10192,,inactive
mthl2 (methuselah-like 2),DRSC10287,1621,6640,1429,3066,inactive
alphaTub84B (alpha-Tubulin at 84B),DRSC12622,21586,,3125,,inactive
CG3368,DRSC15485,3344,5177,1505,1315,inactive
Targ3 (Terminal ADP-ribose protein glycohydrolase 3),DRSC11471,4193,,2083,,inactive
GstD6 (Glutathione S transferase D6),DRSC16687,12752,,3629,,inactive
"Smyd4-4 (SET and MYND domain containing, class 4, member 4)",DRSC05956,6316,,2080,,inactive
CG42505 + CG42504 + CG31358,DRSC15235,8217,,2616,,inactive
CG42505 + CG42504 + CG31358,DRSC15308,3505,,1603,,inactive
CG42505 + CG42504 + CG31358,DRSC15309,25533,,6545,,inactive
